The other results are listed elsewhere or left out. Most entries show no effect beyond the scatter of the controls.
Compound: CN[C@@H]1C[C@H]2O[C@@](C)([C@@H]1OC)n1c3ccccc3c3c4c(c5c6ccccc6n2c5c31)C(=O)NC4 [staurosporine]
Assay: log2 fold change of tryptic peptide abundance, ligand vs vehicle (limited proteolysis) (log2 ratio); higher = more trypsin-susceptible (destabilized)
Conditions: ligand concentration: 20 uM; sample: mouse liver crude lysate; replicate design: treated separately

Amino acid sequences for entries named in this document (tags omitted). A change or cut given only in a name is not applied to a line headed by its entry.
UniProt Q9DCS9: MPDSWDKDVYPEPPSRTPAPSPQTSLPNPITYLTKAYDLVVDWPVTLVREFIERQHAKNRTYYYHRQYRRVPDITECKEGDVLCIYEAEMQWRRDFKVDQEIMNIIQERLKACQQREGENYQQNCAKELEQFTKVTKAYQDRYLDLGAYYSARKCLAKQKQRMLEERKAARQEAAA
UniProt Q9ERB0: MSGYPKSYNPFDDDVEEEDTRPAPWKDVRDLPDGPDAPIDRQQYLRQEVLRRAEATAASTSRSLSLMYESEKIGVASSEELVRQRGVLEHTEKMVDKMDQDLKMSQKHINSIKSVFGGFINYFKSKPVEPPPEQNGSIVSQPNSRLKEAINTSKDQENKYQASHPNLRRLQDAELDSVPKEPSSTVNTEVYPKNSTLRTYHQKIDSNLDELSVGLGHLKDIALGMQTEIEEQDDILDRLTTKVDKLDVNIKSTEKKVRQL
UniProt Q9DC04: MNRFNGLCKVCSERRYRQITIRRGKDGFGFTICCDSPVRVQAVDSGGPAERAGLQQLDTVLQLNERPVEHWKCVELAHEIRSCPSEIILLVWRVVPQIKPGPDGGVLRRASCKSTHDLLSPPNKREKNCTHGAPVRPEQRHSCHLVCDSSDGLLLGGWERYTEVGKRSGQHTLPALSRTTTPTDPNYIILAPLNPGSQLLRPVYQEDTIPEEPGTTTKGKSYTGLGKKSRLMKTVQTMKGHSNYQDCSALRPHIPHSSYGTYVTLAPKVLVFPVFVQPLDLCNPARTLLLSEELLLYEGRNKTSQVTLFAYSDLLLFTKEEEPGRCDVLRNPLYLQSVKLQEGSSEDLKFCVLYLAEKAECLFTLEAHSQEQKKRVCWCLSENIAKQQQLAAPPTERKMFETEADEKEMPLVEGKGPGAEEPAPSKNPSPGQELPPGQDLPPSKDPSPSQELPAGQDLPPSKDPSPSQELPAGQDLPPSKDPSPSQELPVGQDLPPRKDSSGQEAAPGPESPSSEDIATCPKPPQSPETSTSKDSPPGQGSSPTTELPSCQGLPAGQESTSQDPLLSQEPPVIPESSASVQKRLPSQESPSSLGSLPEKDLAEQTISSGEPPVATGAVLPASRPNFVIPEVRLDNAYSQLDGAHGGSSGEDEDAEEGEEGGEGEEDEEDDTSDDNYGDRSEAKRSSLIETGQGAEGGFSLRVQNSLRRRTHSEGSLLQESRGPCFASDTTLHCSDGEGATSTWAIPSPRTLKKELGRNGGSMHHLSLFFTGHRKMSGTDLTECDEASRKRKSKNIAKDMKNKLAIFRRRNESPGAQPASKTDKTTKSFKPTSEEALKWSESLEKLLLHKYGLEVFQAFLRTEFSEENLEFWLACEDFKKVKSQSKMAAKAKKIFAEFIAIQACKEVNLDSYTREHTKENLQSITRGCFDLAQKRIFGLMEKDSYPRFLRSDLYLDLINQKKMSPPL
UniProt Q9EQK7, whole entry: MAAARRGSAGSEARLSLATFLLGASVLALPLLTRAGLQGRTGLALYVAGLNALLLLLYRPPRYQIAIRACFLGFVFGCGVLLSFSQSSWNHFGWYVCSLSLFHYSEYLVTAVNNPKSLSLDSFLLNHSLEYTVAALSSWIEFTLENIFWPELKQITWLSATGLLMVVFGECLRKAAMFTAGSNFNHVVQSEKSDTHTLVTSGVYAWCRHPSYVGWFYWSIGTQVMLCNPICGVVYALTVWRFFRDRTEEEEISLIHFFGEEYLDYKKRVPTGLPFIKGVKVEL
UniProt Q9EPS3: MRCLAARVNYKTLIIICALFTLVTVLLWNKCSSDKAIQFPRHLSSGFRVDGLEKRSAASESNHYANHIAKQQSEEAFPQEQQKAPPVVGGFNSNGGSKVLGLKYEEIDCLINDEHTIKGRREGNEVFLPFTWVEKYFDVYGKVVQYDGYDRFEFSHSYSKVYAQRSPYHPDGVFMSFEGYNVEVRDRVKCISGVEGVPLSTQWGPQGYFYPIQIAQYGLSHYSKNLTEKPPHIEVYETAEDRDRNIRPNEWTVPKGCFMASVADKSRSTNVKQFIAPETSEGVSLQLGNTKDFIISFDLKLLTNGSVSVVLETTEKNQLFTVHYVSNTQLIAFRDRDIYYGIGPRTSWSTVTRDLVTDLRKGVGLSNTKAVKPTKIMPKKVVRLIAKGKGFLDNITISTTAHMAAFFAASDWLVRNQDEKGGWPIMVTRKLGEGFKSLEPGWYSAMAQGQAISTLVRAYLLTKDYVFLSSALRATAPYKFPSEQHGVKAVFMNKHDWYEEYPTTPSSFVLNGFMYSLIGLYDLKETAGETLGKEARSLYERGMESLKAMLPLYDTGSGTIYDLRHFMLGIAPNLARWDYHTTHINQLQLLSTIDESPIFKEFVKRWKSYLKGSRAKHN
UniProt Q9DCG2: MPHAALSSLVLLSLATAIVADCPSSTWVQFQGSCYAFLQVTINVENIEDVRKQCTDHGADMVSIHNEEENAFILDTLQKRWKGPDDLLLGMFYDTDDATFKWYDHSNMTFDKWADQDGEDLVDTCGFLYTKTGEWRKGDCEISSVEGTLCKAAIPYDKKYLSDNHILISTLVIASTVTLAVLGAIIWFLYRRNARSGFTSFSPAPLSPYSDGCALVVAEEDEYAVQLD
UniProt Q9DBB8: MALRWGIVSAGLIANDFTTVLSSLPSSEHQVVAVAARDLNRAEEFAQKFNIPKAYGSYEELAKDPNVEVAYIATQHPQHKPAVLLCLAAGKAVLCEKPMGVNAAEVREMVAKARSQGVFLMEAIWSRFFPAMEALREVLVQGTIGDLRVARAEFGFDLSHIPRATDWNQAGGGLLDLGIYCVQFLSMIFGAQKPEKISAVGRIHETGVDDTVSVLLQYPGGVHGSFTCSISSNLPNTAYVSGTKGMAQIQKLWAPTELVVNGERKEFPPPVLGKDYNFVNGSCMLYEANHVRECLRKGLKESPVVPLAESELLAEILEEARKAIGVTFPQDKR
UniProt Q9DBB9: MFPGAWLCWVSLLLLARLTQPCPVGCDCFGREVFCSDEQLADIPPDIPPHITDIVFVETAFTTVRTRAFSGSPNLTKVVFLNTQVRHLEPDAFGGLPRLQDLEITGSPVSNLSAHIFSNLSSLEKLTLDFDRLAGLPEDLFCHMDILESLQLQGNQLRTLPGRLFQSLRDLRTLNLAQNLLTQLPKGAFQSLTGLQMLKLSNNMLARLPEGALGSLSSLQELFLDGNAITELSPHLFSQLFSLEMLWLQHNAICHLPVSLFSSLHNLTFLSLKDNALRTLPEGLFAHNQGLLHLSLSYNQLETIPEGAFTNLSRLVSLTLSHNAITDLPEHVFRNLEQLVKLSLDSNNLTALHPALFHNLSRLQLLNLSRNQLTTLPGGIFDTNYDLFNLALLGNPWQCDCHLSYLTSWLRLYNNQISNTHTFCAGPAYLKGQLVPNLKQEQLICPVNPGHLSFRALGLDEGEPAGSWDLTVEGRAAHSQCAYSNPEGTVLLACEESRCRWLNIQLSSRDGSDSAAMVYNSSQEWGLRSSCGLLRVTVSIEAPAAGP
UniProt Q9DBQ7: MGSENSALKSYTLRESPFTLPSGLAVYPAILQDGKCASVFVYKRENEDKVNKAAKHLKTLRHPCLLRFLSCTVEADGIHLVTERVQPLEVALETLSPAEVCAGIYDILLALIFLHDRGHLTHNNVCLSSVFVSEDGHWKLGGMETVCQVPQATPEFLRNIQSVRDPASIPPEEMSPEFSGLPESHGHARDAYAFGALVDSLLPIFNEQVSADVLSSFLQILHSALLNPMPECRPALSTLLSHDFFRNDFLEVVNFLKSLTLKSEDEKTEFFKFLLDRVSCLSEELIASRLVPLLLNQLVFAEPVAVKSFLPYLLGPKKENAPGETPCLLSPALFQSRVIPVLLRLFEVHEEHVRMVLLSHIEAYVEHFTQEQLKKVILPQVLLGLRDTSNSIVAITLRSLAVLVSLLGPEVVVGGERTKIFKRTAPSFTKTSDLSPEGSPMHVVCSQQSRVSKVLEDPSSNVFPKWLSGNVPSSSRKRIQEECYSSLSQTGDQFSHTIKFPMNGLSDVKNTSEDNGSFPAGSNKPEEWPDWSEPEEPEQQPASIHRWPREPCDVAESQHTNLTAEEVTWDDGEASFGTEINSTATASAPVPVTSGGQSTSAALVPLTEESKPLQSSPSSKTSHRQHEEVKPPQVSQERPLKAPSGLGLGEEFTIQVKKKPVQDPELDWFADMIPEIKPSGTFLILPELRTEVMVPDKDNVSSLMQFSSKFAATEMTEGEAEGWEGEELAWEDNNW

Row | Target | log2 fold change
1 | UniProt Q9DCS9 (peptide sequence: PDSWDKDVYPEPPSR, peptide start residue: 2) | -0.119
2 | UniProt Q9ERB0 (peptide sequence: GVLEHTEK, peptide start residue: 86) | -0.189
3 | UniProt Q9DC04 (peptide sequence: KMSGTDLTECDEASR, peptide start residue: 774) | -0.366
4 | UniProt Q9EQK7 (peptide sequence: VPTGLPFIK, peptide start residue: 269) | 0.469
5 | UniProt Q9EPS3 (peptide sequence: SAASESNHYANHIAK, peptide start residue: 56) | 0.162
6 | UniProt Q9DCG2 (peptide sequence: KGDCEISSVEGTLCK, peptide start residue: 137) | 0.597
7 | UniProt Q9DBB8 (peptide sequence: AEFGFDLSHIPR, peptide start residue: 152) | -0.37
8 | UniProt Q9DBB9 (peptide sequence: HLEPDAFGGLPR, peptide start residue: 87) | -0.437
9 | UniProt Q9DBQ7 (peptide sequence: LFEVHEEHVR, peptide start residue: 345) | 0.339

Reference: the supplement of paper PMC12819154, “High-throughput peptide-centric local stability assay extends protein–ligand identification to membrane proteins, tissues and bacteria” (Nature Structural & Molecular Biology, 2025)
